Publication PMC12824264
No constants are given. Whether binding was seen depends on the method and setting. Binding seen in cells or lysates may run through a third protein. Here binding means that the protein was enriched with, or labelled near, the bait; the list need not be complete. For some of these results: No binding means not detected with the bait.

The chains behind the UniProt entries cited, without tags or fusion partners. Residues count along the entry.
UniProt P37023, residues 22-503: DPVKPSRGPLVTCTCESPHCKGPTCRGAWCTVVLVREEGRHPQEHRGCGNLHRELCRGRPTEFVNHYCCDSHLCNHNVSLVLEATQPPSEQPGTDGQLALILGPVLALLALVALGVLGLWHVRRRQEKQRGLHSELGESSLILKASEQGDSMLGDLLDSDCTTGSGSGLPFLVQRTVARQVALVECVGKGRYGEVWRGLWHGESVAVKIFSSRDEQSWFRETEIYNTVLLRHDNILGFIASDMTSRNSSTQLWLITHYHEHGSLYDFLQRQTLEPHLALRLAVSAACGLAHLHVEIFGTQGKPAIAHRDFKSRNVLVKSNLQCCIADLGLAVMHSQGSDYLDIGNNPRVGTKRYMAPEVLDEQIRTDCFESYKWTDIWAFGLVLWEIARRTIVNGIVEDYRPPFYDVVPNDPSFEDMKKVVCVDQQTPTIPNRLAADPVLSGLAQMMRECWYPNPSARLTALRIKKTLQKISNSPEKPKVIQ
UniProt P19474: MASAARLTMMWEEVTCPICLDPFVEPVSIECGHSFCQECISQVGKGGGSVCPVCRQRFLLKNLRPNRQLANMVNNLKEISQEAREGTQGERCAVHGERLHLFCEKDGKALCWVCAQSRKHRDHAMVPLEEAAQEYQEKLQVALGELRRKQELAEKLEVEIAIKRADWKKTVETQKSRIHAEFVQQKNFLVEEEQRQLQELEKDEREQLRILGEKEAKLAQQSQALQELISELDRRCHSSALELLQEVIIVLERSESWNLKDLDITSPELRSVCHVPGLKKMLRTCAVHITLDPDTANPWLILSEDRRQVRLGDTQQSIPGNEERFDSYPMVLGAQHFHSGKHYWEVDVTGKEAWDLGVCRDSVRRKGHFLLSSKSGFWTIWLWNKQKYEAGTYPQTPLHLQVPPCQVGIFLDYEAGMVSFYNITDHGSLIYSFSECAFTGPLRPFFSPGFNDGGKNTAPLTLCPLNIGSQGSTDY
UniProt P37173, residues 23-567: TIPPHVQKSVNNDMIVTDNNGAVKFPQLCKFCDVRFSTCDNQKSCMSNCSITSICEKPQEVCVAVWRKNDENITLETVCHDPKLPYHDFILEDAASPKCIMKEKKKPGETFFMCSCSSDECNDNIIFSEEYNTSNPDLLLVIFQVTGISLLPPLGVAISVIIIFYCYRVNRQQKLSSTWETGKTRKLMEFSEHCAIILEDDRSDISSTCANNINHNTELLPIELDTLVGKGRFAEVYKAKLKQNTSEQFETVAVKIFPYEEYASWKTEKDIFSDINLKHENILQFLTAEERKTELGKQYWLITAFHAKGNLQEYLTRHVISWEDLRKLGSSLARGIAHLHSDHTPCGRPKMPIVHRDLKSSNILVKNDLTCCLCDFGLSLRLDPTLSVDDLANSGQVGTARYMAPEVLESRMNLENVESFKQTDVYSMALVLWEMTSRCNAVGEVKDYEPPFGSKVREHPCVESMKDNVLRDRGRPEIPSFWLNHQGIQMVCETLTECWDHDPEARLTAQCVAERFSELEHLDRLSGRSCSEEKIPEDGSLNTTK
UniProt Q15796: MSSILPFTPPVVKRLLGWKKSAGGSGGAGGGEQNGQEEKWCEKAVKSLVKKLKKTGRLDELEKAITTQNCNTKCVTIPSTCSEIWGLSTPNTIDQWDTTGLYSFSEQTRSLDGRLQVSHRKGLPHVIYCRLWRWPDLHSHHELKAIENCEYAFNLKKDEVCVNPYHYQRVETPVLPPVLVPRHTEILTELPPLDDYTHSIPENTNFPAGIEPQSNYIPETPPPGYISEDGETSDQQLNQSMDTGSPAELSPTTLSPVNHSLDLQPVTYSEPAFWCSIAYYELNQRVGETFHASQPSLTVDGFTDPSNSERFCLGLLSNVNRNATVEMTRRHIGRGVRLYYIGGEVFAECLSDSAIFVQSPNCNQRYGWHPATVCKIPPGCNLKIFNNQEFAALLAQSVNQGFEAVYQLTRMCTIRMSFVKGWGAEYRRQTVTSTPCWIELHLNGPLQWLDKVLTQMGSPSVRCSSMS
UniProt Q99717: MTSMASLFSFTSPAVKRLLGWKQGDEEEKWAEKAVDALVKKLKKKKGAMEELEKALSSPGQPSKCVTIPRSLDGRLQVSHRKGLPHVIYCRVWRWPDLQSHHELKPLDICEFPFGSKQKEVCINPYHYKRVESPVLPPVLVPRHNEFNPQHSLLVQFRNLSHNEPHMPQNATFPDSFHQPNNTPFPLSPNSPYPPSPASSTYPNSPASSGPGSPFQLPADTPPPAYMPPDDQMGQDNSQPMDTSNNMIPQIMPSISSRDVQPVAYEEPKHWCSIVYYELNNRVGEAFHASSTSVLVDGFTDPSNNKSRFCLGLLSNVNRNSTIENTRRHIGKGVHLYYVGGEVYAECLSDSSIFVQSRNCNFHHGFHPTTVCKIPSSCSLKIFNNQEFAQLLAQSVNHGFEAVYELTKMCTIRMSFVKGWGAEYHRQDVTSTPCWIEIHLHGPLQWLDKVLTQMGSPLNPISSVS
UniProt Q15797: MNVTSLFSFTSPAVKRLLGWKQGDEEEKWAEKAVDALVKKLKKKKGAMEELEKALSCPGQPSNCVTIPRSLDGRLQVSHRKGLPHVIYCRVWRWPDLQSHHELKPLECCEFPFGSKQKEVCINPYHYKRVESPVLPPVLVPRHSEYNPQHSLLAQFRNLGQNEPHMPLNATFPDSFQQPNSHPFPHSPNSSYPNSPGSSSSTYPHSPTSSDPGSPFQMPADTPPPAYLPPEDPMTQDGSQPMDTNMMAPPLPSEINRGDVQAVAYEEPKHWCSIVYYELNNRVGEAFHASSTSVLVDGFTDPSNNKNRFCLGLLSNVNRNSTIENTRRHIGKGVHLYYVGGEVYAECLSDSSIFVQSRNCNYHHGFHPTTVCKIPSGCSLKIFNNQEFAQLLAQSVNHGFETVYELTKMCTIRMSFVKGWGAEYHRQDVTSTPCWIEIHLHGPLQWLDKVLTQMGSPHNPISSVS

Target: T1, endogenous endoglin (ENG) (human (endogenous in HAOECs, HUVECs, HPAECs)) (UniProt P17813)
T1 sequence: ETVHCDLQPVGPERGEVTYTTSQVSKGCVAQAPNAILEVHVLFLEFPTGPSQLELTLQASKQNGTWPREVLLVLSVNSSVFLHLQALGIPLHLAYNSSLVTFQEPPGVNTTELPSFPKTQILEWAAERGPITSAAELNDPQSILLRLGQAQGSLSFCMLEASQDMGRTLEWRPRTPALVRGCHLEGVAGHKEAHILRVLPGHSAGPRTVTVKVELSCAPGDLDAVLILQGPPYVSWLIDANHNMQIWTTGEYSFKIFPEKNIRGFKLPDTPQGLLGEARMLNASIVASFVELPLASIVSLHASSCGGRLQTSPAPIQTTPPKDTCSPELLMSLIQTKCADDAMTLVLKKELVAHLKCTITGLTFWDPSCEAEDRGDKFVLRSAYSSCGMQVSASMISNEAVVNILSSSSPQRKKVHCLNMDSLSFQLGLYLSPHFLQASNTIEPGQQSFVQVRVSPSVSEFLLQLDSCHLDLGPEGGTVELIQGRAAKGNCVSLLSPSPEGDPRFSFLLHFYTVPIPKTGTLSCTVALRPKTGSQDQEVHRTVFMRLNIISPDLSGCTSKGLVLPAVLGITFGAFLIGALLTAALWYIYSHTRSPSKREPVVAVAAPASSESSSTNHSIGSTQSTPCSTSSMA
Assay: affinity purification with mass spectrometry; TRC105 (anti-ENG) NHS affinity column against a BSA-NHS control column; lysates (1% Triton-X100/PBS, 2 mM EDTA) of HAOECs, HUVECs and HPAECs kept in 0.1% FBS, 10% FBS, or 0.1% FBS with 0.25 ng/ml pro:BMP9 for 40 min; elution with 0.15 M glycine pH 2.5; LC-MS/MS

binding | Substance
binds | endogenous ALK1 (from UniProt P37023 22-503) (receptor)
binds | TRIM21 (from UniProt P19474 1-475)
binds | endogenous TGF-beta type II receptor (TGFBRII) (from UniProt P37173 23-567)
binds | SMAD2 (from UniProt Q15796 1-467)
binds | SMAD5 (from UniProt Q99717 1-465)
binds | SMAD1 (from UniProt Q15797 1-465)

Target: T1, endogenous endoglin (ENG) (human (endogenous in HAOECs, HUVECs, HPAECs))
Assay: condition: only cells in 10% FBS or treated with pro:BMP9 (Smad1/5 phosphorylation activated); affinity purification with mass spectrometry; as a12, only the cells in 10% FBS or in 0.1% FBS treated with pro:BMP9 (Smad1/5 phosphorylation active)

binding | Substance
no binding | endogenous ALK1 (from UniProt P37023 22-503) (receptor)
